{"source": "paper PMC12040169", "about": "(PLOS Biology, 2025)", "note": "The list shows a part of the results.", "data": [{"tested_on": "T1, CTL2-GFP (C. trachomatis L2/434/Bu, GFP-expressing)", "T1 construct": "L2/434/Bu, GFP-expressing", "design": "species or system HeLa; Intracellular C. trachomatis growth in HeLa cells, bulk GFP fluorescence relative to DMSO", "conditions": "bulk GFP, single well; 28.5 h, 10 µM; inhibitor", "units": {"% of control remaining": "%"}, "values": [{"smiles": "CCOC(=O)C1CCN(C(=O)c2cnn3c(C)c(Cc4cccc(Cl)c4)c(C)nc23)CC1", "note": "[CBK160305]", "% of control remaining": 114.736}, {"smiles": "COc1ccc(-c2ccccc2NC(=O)c2cc(-n3cccn3)ccc2Cl)cc1", "note": "[CBK285634]", "% of control remaining": 122.758}, {"smiles": "COCOc1ccc(-c2ncc(OC)nc2NC(=O)c2cc(C)oc2C)cc1", "note": "[CBK145249]", "% of control remaining": 127.916}, {"smiles": "Cn1cc(N2CCCC(NC(=O)Nc3cccc(C#N)c3)C2)cn1", "note": "(stereo not shown) [CBK305179]", "% of control remaining": 119.482}, {"smiles": "CN(C)CCN(Cc1ccccc1)c1ccccc1", "note": "[CBK012223C]", "% of control remaining": 118.583}, {"smiles": "O=C(NCc1ccccn1)/C(=N/O)c1ccccc1", "note": "[CBK288472]", "% of control remaining": 109.75}, {"smiles": "C/C(=N\\c1ccccc1C(F)(F)F)c1ccncc1", "note": "[CBK021262]", "% of control remaining": 100}, {"smiles": "Cc1cnc(C(=O)NC2(c3ccc(Cl)cc3)CCC2)cn1", "note": "[CBK282775]", "% of control remaining": 98.8508}, {"smiles": "Cc1ccc2c(O)c(C(=O)NCc3cccs3)cnc2c1", "note": "[CBK159997]", "% of control remaining": 90.1797}, {"smiles": "Oc1c(Br)cc(Cl)cc1/C=N/Nc1nnc2c(n1)[nH]c1ccccc12", "note": "[CBK262041]", "% of control remaining": 105.333}, {"smiles": "Nc1ncc(-c2ccoc2)nc1N1CCN(CCO)CC1", "note": "[CBK063428]", "% of control remaining": 234.773}, {"smiles": "Cc1cc(C)c(NC(=O)CSc2nc(C)c(Cc3ccccc3)c(O)n2)c([N+](=O)[O-])c1", "note": "[CBK268715]", "% of control remaining": 161.493}, {"smiles": "Cc1cccc(N2CCOC3(CCCC3)C2)n1", "note": "[CBK304446]", "% of control remaining": 109.185}, {"smiles": "COc1ccc(C(=O)Nc2nc(-c3ccc(OC)cc3)cs2)cc1", "note": "[CBK287325]", "% of control remaining": 162.078}, {"smiles": "O=C(NCc1ccc(Cl)c(Cl)c1)Nc1cccc(C(=O)O)c1", "note": "[CBK155461G]", "% of control remaining": 80.0935}, {"smiles": "CCN1CCN(C(=O)c2cnccn2)CC1", "note": "[CBK200373]", "% of control remaining": 148.386}, {"smiles": "c1cc(-c2cnn(-c3ccc4c(c3)CCO4)n2)cs1", "note": "[CBK112861]", "% of control remaining": 100.702}, {"smiles": "O=C(O)CCCC(=O)N1N=C(c2ccccc2)CC1c1ccc2nccnc2c1", "note": "(stereo not shown) [CBK286752]", "% of control remaining": 123.42}, {"smiles": "CCCc1[nH]nc(O)c1Cc1ccc(C(C)(C)C)cc1", "note": "[CBK075028]", "% of control remaining": 118.805}, {"smiles": "Oc1ccc2[nH]c3c(c2c1)CCNC31CCN(CCOc2ccccc2)C1", "note": "(stereo not shown) [CBK081496]", "% of control remaining": 97.6079}, {"smiles": "O=C(CSc1ncnc2c1oc1ccccc12)NCc1ccccc1", "note": "[CBK287397]", "% of control remaining": 108.21}, {"smiles": "Cc1cc(C(=O)Nc2cccc(-c3nc4cc(Cl)ccc4o3)c2C)ccc1[N+](=O)[O-]", "note": "[CBK262949]", "% of control remaining": 106.269}, {"smiles": "Cc1ccc(C#N)cc1S(=O)(=O)NC(=O)CC1CCOc2ccccc21", "note": "(stereo not shown) [CBK306476]", "% of control remaining": 98.3735}, {"smiles": "CN(CC(=O)N1CCN(Cc2ccccc2)CC1)S(=O)(=O)c1ccc2ccccc2c1", "note": "[CBK267117]", "% of control remaining": 141.861}, {"smiles": "CSCCC(=O)N1CCC2(CCN(Cc3ccccc3)CC2)C1", "note": "[CBK136757]", "% of control remaining": 107.621}, {"smiles": "Cc1n[nH]c(C)c1CCCCCOc1ccccc1", "note": "[CBK027211C]", "% of control remaining": 133.281}, {"smiles": "CC(=O)Nc1ccc(Sc2cnccn2)cc1", "note": "[CBK085838]", "% of control remaining": 92.5588}, {"smiles": "O=C(c1ccncc1)N1C2CCC1CC(O)(c1ccc(F)cc1)C2", "note": "(stereo not shown) [CBK283545]", "% of control remaining": 102.889}, {"smiles": "N#CCCCN1CCC(Oc2nccnc2OC2CCCCC2)CC1", "note": "[CBK082871T]", "% of control remaining": 117.468}, {"smiles": "O=C(NC(c1ccc(F)cc1)c1ccc2ccccc2n1)C1CCN(CCCN2CCOCC2)CC1", "note": "(stereo not shown) [CBK148118]", "% of control remaining": 146.138}, {"smiles": "c1cc(CCCOc2cc(N3CCCC3)ncn2)ccn1", "note": "[CBK115897]", "% of control remaining": 77.5136}, {"smiles": "Cc1ccn2ncc(C(=O)N3CCCCCC3c3ccco3)c2n1", "note": "(stereo not shown) [CBK304015]", "% of control remaining": 125.355}, {"smiles": "Cc1cc(COc2nc3ccccc3nc2NCCC(C)O)no1", "note": "(stereo not shown) [CBK173999]", "% of control remaining": 109.343}, {"smiles": "Clc1ccc(-c2c[nH]c([C@@H]3COCCN3Cc3csnn3)n2)cc1", "note": "[CBK289309]", "% of control remaining": 149.924}, {"smiles": "Cc1ccc(-c2nccnc2OCCN2C(=O)c3ccccc3C2=O)c(C)c1", "note": "[CBK106981]", "% of control remaining": 107.187}, {"smiles": "N#Cc1c(NC(=O)CSc2nnc(-c3ccc(Cl)cc3)o2)oc(-c2ccccc2)c1-c1ccccc1", "note": "[CBK267655]", "% of control remaining": 113.891}, {"smiles": "COc1cc2c(cc1OC)C(CCN1CCN(c3ccccc3C)CC1)OCC(C)(C)C2", "note": "(stereo not shown) [CBK024043C]", "% of control remaining": 100}, {"smiles": "Oc1ccc(-c2n[nH]cc2-c2cnn(-c3ccccc3)c2)c(O)c1O", "note": "[CBK266948]", "% of control remaining": 109.653}, {"smiles": "O=C(c1c(F)cccc1F)N1CCCC2(CCN(Cc3ccccc3)C2)C1", "note": "(stereo not shown) [CBK136886]", "% of control remaining": 61.5363}, {"smiles": "Cc1cc(C)cc(NC(=O)N2CCN(c3nccnc3NS(C)(=O)=O)CC2)c1", "note": "[CBK048877]", "% of control remaining": 123.02}]}]}
